System: rabbit femoral arteries
Test: in vitro vasoconstriction assay (vascular reactivity)
Format: cell-based
Conditions: 10^-5 M nifedipine added after low molecular weight inhibitors

For `COC(=O)C1=C(C)NC(C)=C(C(=O)OC)C1c1ccccc1[N+](=O)[O-]` [nifedipine], the reversal of vasoconstriction was “vasoconstriction was reversed”.

Reference: US5667811A, “Na-K-ATPase inhibiting natriuretic substances” (The Regents of the University of California, priority 1992, dated 1997)
